Reference: publication PMC9394524
Results are given in words; binding and its absence hold for the method and conditions named. In cells and extracts the contact can be indirect. Some entries that bind do so weakly or less than the wild type. Sequences can lack the tags named with a protein.

T1: Kel1-GFP (S. cerevisiae) (UniProt P38853)
T1 sequence: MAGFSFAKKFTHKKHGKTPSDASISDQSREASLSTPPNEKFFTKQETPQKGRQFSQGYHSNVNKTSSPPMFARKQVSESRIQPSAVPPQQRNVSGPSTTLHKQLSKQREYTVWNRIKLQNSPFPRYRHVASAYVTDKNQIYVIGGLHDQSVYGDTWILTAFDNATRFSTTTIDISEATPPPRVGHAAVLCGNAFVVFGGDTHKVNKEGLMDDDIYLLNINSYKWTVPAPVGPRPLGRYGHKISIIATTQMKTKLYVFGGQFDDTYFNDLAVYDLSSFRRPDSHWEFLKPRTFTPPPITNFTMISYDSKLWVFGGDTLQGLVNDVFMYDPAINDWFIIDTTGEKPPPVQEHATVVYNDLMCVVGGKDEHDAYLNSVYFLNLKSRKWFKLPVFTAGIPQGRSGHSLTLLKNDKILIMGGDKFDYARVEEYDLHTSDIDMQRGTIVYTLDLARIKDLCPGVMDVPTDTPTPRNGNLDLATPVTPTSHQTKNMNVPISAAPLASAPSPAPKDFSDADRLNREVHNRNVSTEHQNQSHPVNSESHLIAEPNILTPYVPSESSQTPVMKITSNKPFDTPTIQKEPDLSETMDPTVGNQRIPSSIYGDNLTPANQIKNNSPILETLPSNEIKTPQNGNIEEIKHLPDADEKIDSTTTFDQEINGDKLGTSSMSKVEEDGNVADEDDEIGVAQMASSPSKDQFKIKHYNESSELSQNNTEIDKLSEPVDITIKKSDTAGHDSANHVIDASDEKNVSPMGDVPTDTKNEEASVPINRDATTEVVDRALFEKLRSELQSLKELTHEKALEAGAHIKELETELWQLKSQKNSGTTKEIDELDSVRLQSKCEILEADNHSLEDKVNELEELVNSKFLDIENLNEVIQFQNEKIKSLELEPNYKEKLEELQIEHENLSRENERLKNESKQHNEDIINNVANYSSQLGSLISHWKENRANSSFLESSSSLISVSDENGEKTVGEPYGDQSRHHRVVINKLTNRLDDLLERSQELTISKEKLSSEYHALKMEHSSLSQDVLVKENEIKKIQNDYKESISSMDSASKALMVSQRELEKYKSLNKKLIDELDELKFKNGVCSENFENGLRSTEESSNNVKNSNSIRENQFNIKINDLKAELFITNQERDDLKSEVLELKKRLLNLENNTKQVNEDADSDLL

B1: Sst2-3XFLAG (protein, UniProt P11972 1-698)
chain: MVDKNRTLHELSSKNFSRTPNGLIFTNDLKTVYSIFLICLDLKEKKHSSDTKSFLLTAFTKHFHFTFTYQEAIKAMGQLELKVDMNTTCINVSYNIKPSLARHLLTLFMSSKLLHTPQDRTRGEPKEKVLFQPTPKGVAVLQKYVRDIGLKTMPDILLSSFNSMKLFTFERSSVTDSIIHSDYLIHILFIKMMGAKPNVWSPTNADDPLPCLSSLLEYTNNDDTFTFEKSKPEQGWQAQIGNIDINDLERVSPLAHRFFTNPDSESHTQYYVSNAGIRLFENKTFGTSKKIVIKYTFTTKAIWQWIMDCTDIMHVKEAVSLAALFLKTGLIVPVLLQPSRTDKKKFQISRSSFFTLSKRGWDLVSWTGCKSNNIRAPNGSTIDLDFTLRGHMTVRDEKKTLDDSEGFSQDMLISSSNLNKLDYVLTDPGMRYLFRRHLEKELCVENLDVFIEIKRFLKKMTILKKLIDSKHCDKKSNTSTSKNNIVKTIDSALMKQANECLEMAYHIYSSYIMIGSPYQLNIHHNLRQNISDIMLHPHSPLSEHFPTNLYDPSPASAESAASSISSTEADTLGEPPEVSLKPSKNLSNENCSFKKQGFKHQLKEYKPAPLTLAETHSPNASVENSHTIVRYGMDNTQNDTKSVESFPATLKVLRKLYPLFEIVSNEMYRLMNNDSFQKFTQSDVYKDASALIEIQEKC
B2: sst2^S539A-3XFLAG (protein, UniProt P11972 1-698)
chain: MVDKNRTLHELSSKNFSRTPNGLIFTNDLKTVYSIFLICLDLKEKKHSSDTKSFLLTAFTKHFHFTFTYQEAIKAMGQLELKVDMNTTCINVSYNIKPSLARHLLTLFMSSKLLHTPQDRTRGEPKEKVLFQPTPKGVAVLQKYVRDIGLKTMPDILLSSFNSMKLFTFERSSVTDSIIHSDYLIHILFIKMMGAKPNVWSPTNADDPLPCLSSLLEYTNNDDTFTFEKSKPEQGWQAQIGNIDINDLERVSPLAHRFFTNPDSESHTQYYVSNAGIRLFENKTFGTSKKIVIKYTFTTKAIWQWIMDCTDIMHVKEAVSLAALFLKTGLIVPVLLQPSRTDKKKFQISRSSFFTLSKRGWDLVSWTGCKSNNIRAPNGSTIDLDFTLRGHMTVRDEKKTLDDSEGFSQDMLISSSNLNKLDYVLTDPGMRYLFRRHLEKELCVENLDVFIEIKRFLKKMTILKKLIDSKHCDKKSNTSTSKNNIVKTIDSALMKQANECLEMAYHIYSSYIMIGSPYQLNIHHNLRQNISDIMLHPHAPLSEHFPTNLYDPSPASAESAASSISSTEADTLGEPPEVSLKPSKNLSNENCSFKKQGFKHQLKEYKPAPLTLAETHSPNASVENSHTIVRYGMDNTQNDTKSVESFPATLKVLRKLYPLFEIVSNEMYRLMNNDSFQKFTQSDVYKDASALIEIQEKC
B3: sst2^S539D-3xFLAG (protein, UniProt P11972 1-698)
chain: MVDKNRTLHELSSKNFSRTPNGLIFTNDLKTVYSIFLICLDLKEKKHSSDTKSFLLTAFTKHFHFTFTYQEAIKAMGQLELKVDMNTTCINVSYNIKPSLARHLLTLFMSSKLLHTPQDRTRGEPKEKVLFQPTPKGVAVLQKYVRDIGLKTMPDILLSSFNSMKLFTFERSSVTDSIIHSDYLIHILFIKMMGAKPNVWSPTNADDPLPCLSSLLEYTNNDDTFTFEKSKPEQGWQAQIGNIDINDLERVSPLAHRFFTNPDSESHTQYYVSNAGIRLFENKTFGTSKKIVIKYTFTTKAIWQWIMDCTDIMHVKEAVSLAALFLKTGLIVPVLLQPSRTDKKKFQISRSSFFTLSKRGWDLVSWTGCKSNNIRAPNGSTIDLDFTLRGHMTVRDEKKTLDDSEGFSQDMLISSSNLNKLDYVLTDPGMRYLFRRHLEKELCVENLDVFIEIKRFLKKMTILKKLIDSKHCDKKSNTSTSKNNIVKTIDSALMKQANECLEMAYHIYSSYIMIGSPYQLNIHHNLRQNISDIMLHPHDPLSEHFPTNLYDPSPASAESAASSISSTEADTLGEPPEVSLKPSKNLSNENCSFKKQGFKHQLKEYKPAPLTLAETHSPNASVENSHTIVRYGMDNTQNDTKSVESFPATLKVLRKLYPLFEIVSNEMYRLMNNDSFQKFTQSDVYKDASALIEIQEKC

target: T1, Kel1-GFP (S. cerevisiae); test: co-IP; Kel1-GFP precipitated with GFP-Trap M-270 magnetic particles from 200 ug yeast lysate, 1 h at 4°C; cells treated with 10 uM alpha-factor for 1 h; lysis buffer 10 mM Tris pH 7.4, 150 mM NaCl, 0.5 mM EDTA, 0.5% Triton X-100, protease and phosphatase inhibitors; RGS detected by anti-FLAG Western blot

binding, binds:
B1
B2
B3
